Laboratory results: PubChem BioAssay AID1224830 (NIAID, 2016)
This is an unselected part of about 18,000 reagents. In the full data, about 2,900 (16%) are marked active. 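Calls are made per well; low scores hint the gene aids the LPS response, high scores that it dampens it.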 Unmarked entries are inactive. Repeated entries: four replicate wells of each siRNA pool.

- Test: 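Host factors that control LPS-induced TNF expression in human macrophages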 (primary screen)
- Cell system: human THP-1 monocytic leukaemia cells, TNF dual-luciferase reporter clone, PMA-differentiated to macrophage-like cells
- Reagents: siRNA pool against human genes, 50 nM
- Timing: LPS for 4 h, given about 3 days after siRNA transfection
- Conditions: bacterial LPS (TLR4 ligand), 10 ng/ml
- Read-out: 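Ratio of firefly to renilla light, scaled to the plate median and expressed as a robust z-score per replicate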
- Scale: TNF reporter robust z-score: higher = stronger TNF reporter response to LPS
- Call rule: 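Each well counts as active if its z-score is over 2.8 or under -1.5; controls are left without a call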

How did the screen score NDUFB1?
TNF reporter robust z-score: 1.88

How did the screen score NDUFB1?
TNF reporter robust z-score: 1.39

What did the screen give for NDUFB1?
TNF reporter robust z-score: 1.96

What is on record for NDUFB1?
TNF reporter robust z-score: 2.94 (active)

What did the screen give for PIGV?
TNF reporter robust z-score: -0.77

With PIGV, what does the deposit list?
TNF reporter robust z-score: -1.34

How did the screen score PIGV?
TNF reporter robust z-score: -1.62 (active)

With PIGV, how do the results read?
TNF reporter robust z-score: -1.36

With DGKA, what does the deposit list?
TNF reporter robust z-score: 2.25

Which result is listed for DGKA?
TNF reporter robust z-score: 2.44

For DGKA, what was measured?
TNF reporter robust z-score: 2.96 (active)

How did the screen score DGKA?
TNF reporter robust z-score: 0.22

For PLEKHF2, how do the results read?
TNF reporter robust z-score: -0.96

With PLEKHF2, what was measured?
TNF reporter robust z-score: 0.14

How did the screen score PLEKHF2?
TNF reporter robust z-score: -1.16

What is on record for PLEKHF2?
TNF reporter robust z-score: -1.19

With MGAT5, what was measured?
TNF reporter robust z-score: -0.26

For MGAT5, how do the results read?
TNF reporter robust z-score: 0.67

For MGAT5, what does the deposit list?
TNF reporter robust z-score: -0.48

With MGAT5, what does the deposit list?
TNF reporter robust z-score: 0.65

Entries listed above called active, once more:
NDUFB1 — TNF reporter robust z-score: 2.94 (active)
PIGV — TNF reporter robust z-score: -1.62 (active)
DGKA — TNF reporter robust z-score: 2.96 (active)

More entries:
What is on record for RAB10?
TNF reporter robust z-score: 1.56

With RAB10, how do the results read?
TNF reporter robust z-score: 3.97 (active)

For RAB10, what was measured?
TNF reporter robust z-score: 2.53

What did the screen give for RAB10?
TNF reporter robust z-score: 2.27

What did the screen give for HTR3E?
TNF reporter robust z-score: -0.87

What did the screen give for HTR3E?
TNF reporter robust z-score: 0.38

What did the screen give for HTR3E?
TNF reporter robust z-score: 0.08

With HTR3E, how do the results read?
TNF reporter robust z-score: -0.46

What is on record for HTR3E?
TNF reporter robust z-score: -0.89

Which result is listed for HTR3E?
TNF reporter robust z-score: 0.8

For HTR3E, what was measured?
TNF reporter robust z-score: 0.3

What did the screen give for HTR3E?
TNF reporter robust z-score: -0.6

How did the screen score TMEM132D?
TNF reporter robust z-score: 0.54

With TMEM132D, what does the deposit list?
TNF reporter robust z-score: 0.95

For TMEM132D, what was measured?
TNF reporter robust z-score: 0.35

For TMEM132D, what does the deposit list?
TNF reporter robust z-score: 1.64

With ATP6V1C2, what does the deposit list?
TNF reporter robust z-score: -0.05

Which result is listed for ATP6V1C2?
TNF reporter robust z-score: 0.31

For ATP6V1C2, what was measured?
TNF reporter robust z-score: -0.34

With ATP6V1C2, what does the deposit list?
TNF reporter robust z-score: 0.65

Which result is listed for RPRD1A?
TNF reporter robust z-score: -0.81

For RPRD1A, what was measured?
TNF reporter robust z-score: 0.42

For RPRD1A, what was measured?
TNF reporter robust z-score: -0.55

With RPRD1A, what does the deposit list?
TNF reporter robust z-score: 0.79

Which result is listed for CGB2?
TNF reporter robust z-score: -0.63

How did the screen score CGB2?
TNF reporter robust z-score: 0.24

For CGB2, how do the results read?
TNF reporter robust z-score: 0.87

Which result is listed for CGB2?
TNF reporter robust z-score: 0.31
